Experimental data as given in paper PMC9953269, “In Vivo Acute Toxicity Studies of Novel Anti-Melanoma Compounds Downregulators of hnRNPH1/H2” (Biomolecules, 2023).

Tested on: various cell types (liver, lung, breast, brain, skin, ovary, primary melanocytes, primary keratinocytes)
Test: General cytotoxicity against cell lines and primary cells from different tissues
Format: cell-based
Details: TC50 versus melanoma IC50

Row | Structure (SMILES) | in vitro therapeutic index (TI)
1 | O=C1NC[C@H](Cc2ccccc2)N(C[C@@H]2CCCN2C[C@@H](CC2CCCCC2)N2C[C@H](Cc3ccc(O)cc3)N(CCc3ccccc3)C(=O)C2=O)C1=O [Compound 2155-14] | ~ 10
2 | O=C1NC[C@H](Cc2ccccc2)N(C[C@@H]2CCCN2C[C@H](Cc2ccccc2)N2C[C@H](Cc3ccc(O)cc3)N(CCC34CC5CC(CC(C5)C3)C4)C(=O)C2=O)C1=O [Compound 2155-18] | ~ 10
